Measured values: PMC7771966, “Quantitative glycoproteomics reveals cellular substrate selectivity of the ER protein quality control sensors UGGT1 and UGGT2” (eLife, 2020)
These are yes or no findings as the source states them, for the method shown. In cells and extracts the contact can be indirect.

Sequences of proteins named here, by UniProt entry; tags and fusion partners are left off. Residues count along the entry.
UniProt P15253, residues 18-418: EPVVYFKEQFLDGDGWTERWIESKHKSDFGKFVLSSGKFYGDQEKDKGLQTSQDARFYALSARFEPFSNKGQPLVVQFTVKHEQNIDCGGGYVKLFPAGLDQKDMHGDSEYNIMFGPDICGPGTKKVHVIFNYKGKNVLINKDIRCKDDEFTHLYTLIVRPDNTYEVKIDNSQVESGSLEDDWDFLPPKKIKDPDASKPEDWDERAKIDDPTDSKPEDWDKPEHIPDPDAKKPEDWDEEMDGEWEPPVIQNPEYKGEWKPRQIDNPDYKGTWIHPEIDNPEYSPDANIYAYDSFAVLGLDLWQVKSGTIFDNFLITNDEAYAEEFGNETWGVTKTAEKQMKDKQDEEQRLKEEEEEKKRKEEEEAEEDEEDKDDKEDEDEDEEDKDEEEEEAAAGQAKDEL
UniProt P08069, residues 31-1367: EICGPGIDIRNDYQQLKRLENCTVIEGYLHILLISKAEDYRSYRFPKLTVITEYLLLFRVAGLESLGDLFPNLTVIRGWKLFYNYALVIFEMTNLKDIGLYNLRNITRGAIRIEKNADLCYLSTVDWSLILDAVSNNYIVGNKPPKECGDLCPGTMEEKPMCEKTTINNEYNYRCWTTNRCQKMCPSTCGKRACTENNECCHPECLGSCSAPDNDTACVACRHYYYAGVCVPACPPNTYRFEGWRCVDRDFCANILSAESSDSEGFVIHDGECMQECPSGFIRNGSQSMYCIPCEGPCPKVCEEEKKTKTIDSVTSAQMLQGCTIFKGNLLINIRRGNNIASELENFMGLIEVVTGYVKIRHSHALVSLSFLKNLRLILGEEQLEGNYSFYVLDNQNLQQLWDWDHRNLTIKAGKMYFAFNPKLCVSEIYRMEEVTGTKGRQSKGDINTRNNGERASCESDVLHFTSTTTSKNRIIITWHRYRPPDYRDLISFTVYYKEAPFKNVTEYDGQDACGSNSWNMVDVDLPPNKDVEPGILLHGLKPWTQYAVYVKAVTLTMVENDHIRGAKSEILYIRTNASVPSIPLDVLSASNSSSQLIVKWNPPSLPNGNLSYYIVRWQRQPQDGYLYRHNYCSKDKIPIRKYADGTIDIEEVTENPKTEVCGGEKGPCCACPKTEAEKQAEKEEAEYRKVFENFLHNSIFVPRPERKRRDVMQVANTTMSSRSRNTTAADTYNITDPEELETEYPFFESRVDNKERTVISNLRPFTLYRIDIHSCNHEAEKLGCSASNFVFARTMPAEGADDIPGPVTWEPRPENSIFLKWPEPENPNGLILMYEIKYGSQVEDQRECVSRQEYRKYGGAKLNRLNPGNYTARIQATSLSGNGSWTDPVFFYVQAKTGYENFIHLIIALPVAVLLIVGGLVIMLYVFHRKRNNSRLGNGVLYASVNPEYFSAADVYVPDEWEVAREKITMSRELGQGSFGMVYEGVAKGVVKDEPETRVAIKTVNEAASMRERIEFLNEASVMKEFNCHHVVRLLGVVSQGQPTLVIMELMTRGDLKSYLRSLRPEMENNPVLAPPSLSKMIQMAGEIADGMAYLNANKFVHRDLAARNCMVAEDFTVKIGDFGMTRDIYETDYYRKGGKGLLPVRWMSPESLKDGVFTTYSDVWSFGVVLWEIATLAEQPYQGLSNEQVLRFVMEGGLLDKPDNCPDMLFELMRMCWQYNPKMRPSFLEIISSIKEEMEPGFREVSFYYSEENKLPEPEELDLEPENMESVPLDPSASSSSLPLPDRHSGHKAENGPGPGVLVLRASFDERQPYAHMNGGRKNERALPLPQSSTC
UniProt P11717, residues 41-2491: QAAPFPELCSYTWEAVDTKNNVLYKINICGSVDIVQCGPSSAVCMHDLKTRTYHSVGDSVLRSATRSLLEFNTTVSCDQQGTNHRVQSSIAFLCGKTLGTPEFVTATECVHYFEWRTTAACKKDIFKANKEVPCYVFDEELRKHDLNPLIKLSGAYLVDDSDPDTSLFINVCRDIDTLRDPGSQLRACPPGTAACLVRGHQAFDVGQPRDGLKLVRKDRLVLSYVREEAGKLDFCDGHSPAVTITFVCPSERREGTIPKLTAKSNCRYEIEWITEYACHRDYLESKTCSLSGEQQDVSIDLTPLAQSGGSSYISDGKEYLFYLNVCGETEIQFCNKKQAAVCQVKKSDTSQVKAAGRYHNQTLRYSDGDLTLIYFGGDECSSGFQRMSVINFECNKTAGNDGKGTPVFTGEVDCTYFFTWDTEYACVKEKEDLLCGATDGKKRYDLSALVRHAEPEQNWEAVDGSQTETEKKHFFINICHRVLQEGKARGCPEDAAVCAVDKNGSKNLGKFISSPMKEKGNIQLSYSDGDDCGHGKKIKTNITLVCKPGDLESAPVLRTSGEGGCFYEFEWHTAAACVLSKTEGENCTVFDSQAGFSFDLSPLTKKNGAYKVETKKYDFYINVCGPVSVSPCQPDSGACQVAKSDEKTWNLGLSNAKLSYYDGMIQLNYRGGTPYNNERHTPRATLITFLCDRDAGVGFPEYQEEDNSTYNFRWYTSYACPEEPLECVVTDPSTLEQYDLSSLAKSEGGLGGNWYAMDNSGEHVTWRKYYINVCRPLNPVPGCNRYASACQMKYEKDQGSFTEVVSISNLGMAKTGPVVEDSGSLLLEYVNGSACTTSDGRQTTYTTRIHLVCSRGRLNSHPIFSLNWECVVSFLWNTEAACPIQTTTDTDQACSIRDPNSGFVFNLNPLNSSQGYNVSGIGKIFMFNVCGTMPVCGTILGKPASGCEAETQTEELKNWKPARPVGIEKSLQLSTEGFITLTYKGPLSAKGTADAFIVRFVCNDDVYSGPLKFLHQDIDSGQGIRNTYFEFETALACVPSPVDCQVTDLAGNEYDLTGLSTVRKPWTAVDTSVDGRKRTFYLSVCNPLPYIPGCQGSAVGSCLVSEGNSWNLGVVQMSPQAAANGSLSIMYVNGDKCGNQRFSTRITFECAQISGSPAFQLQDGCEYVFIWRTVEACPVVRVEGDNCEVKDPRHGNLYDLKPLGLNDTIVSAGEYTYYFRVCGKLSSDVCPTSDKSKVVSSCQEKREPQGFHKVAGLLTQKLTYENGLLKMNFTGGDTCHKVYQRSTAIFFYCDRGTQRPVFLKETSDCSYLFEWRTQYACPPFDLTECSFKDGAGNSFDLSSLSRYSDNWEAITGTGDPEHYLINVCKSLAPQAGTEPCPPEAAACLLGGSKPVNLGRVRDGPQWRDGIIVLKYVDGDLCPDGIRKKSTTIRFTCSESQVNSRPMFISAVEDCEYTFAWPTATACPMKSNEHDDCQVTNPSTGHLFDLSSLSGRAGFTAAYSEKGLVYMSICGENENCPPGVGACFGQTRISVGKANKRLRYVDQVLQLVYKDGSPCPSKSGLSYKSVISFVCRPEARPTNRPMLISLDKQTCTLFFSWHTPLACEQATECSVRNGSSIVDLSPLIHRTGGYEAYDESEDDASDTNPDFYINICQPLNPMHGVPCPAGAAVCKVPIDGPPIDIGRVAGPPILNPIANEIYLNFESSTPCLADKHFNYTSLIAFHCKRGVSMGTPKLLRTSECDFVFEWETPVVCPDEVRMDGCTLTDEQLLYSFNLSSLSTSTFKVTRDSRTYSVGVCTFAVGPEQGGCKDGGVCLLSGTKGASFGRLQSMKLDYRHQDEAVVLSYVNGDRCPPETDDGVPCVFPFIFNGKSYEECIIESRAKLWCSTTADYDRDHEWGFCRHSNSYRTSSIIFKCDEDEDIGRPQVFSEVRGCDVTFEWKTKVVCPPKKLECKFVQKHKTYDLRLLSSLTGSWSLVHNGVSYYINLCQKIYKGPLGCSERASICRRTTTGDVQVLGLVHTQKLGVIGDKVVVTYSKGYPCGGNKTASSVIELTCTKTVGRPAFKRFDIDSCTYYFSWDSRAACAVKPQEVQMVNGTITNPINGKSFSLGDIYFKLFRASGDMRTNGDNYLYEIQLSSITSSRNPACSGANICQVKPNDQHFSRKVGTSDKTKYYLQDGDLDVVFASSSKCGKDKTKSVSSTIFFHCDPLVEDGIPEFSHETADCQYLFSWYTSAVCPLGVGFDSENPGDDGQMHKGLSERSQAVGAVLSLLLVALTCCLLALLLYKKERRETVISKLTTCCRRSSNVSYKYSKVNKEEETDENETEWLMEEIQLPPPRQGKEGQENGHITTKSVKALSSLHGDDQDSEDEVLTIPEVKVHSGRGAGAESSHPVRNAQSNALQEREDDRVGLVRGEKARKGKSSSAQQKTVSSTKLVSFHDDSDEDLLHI

Molecular target: glutathione S-transferase-calreticulin (GST-CRT) (UniProt P15253)
Experiment: condition: only lysate of ALG6/UGGT1/UGGT2-/- cells (no reglucosylation); pull-down; as a2, but lysate of ALG6/UGGT1/UGGT2-/- HEK293-EBNA1-6E cells (no reglucosylation by UGGT1 or UGGT2); only the target purified

Row | binding | Substance
1 | no binding | insulin-like growth factor type one receptor (IGF-1R) (from UniProt P08069 31-1367)
2 | no binding | cation-independent mannose-6-phosphate receptor (CI-M6PR) (from UniProt P11717 41-2491)
